# Melanoma cell counts after drug treatment

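The test systems are human melanoma cell lines, treated with a single drug for 72 h and then stained and imaged. Each value is the count of nuclei relative to DMSO-treated wells, in %, so that 100 equals the control. Every drug was used at one fixed concentration, the higher of two screened. These are primary screening values without error estimates.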
Only some of the drugs and lines screened are listed, without regard to their results.

{"drug": "C=CCn1c(=O)c2cnc(Nc3ccc(N4CCN(C)CC4)cc3)nc2n1-c1cccc(C(C)(C)O)n1 at 100 nM", "A375": 68.6, "G-361": 75.3, "SK-MEL-2": 75.7, "RPMI-7951": 73.8}
{"drug": "O=C(Nc1ccccc1)c1cc([N+](=O)[O-])ccc1Cl at 10000 nM", "A375": 134, "G-361": 85.5, "SK-MEL-2": 92.6, "RPMI-7951": 101}
{"drug": "Cc1cc(N2CCOCC2)cc2[nH]c(-c3c(NC[C@@H](O)c4cccc(Cl)c4)cc[nH]c3=O)nc12 at 1000 nM", "A375": 107, "G-361": 65.6, "SK-MEL-2": 85.8, "RPMI-7951": 64.5}
{"drug": "Clc1ccc(Nc2nnc(Cc3ccncc3)c3ccccc23)cc1 at 10000 nM", "A375": 105, "G-361": 64.9, "SK-MEL-2": 79.9, "RPMI-7951": 68.9}
{"drug": "Cc1cc([N+](=O)[O-])ccc1NS(=O)(=O)c1cc(Cl)ccc1Cl at 5000 nM", "A375": 77.5, "G-361": 38.6, "SK-MEL-2": 67.8, "RPMI-7951": 105}
{"drug": "C#Cc1cccc(Nc2ncnc3cc(OCCOC)c(OCCOC)cc23)c1 at 4000 nM", "A375": 96.4, "G-361": 89.3, "SK-MEL-2": 101, "RPMI-7951": 78.6}
{"drug": "CNC(=O)c1cc(Oc2ccc(NC(=O)Nc3ccc(Cl)c(C(F)(F)F)c3)cc2)ccn1 at 2000 nM", "A375": 108, "G-361": 119, "SK-MEL-2": 102, "RPMI-7951": 94.6}
{"drug": "O=C(Nc1cccc(Cl)c1)Nc1ncc(CCNc2ncnc3ccsc23)s1 at 4 nM", "A375": 86.2, "G-361": 78.8, "SK-MEL-2": 70.3, "RPMI-7951": 45.8}
{"drug": "N#CC[C@H](C1CCCC1)n1cc(-c2ncnc3[nH]ccc23)cn1 at 5000 nM", "A375": 131, "G-361": 76.9, "SK-MEL-2": 91.1, "RPMI-7951": 79.4}
{"drug": "NC1(c2ccc(-c3nc4ccn5c(=O)[nH]nc5c4cc3-c3ccccc3)cc2)CCC1 at 2000 nM", "A375": 109, "G-361": 79.9, "SK-MEL-2": 61.1, "RPMI-7951": 68.7}
{"drug": "Oc1cc(-c2nc(-c3ccccc3)[nH]c2-c2ccncc2)ccc1Cl at 1000 nM", "A375": 96.1, "G-361": 64.5, "SK-MEL-2": 23.8, "RPMI-7951": 71.5}
{"drug": "COc1ccc2c(c1)CCC1C2CCC2(C)C(NCCCCCCN3C(=O)C=CC3=O)CCC12 (centres unmarked) at 2000 nM", "A375": 79.2, "G-361": 74.2, "SK-MEL-2": 101, "RPMI-7951": 38.4}
{"drug": "CO[C@H]1C[C@@H]2CC[C@@H](C)[C@@](O)(O2)C(=O)C(=O)N2CCCC[C@H]2C(=O)O[C@H]([C@H](C)C[C@@H]2CC[C@@H](OCCO)[C@H](OC)C2)CC(=O)[C@H](C)/C=C(\\C)[C@@H](O)[C@@H](OC)C(=O)[C@H](C)C[C@H](C)/C=C/C=C/C=C/1C at 100 nM", "A375": 91.0, "G-361": 56.4, "SK-MEL-2": 59.9, "RPMI-7951": 80.0}
{"drug": "CC1(C)NC(=O)N(c2ccc([N+](=O)[O-])c(C(F)(F)F)c2)C1=O at 5000 nM", "A375": 132, "G-361": 146, "SK-MEL-2": 99.5, "RPMI-7951": 148}
{"drug": "CCCS(=O)(=O)Nc1ccc(F)c(C(=O)c2c[nH]c3ncc(Cl)cc23)c1F at 400 nM", "A375": 101, "G-361": 70.1, "SK-MEL-2": 112, "RPMI-7951": 120}
{"drug": "OCCn1cc(-c2cnc3nnn(Cc4ccc5ncccc5c4)c3n2)cn1 at 5000 nM", "A375": 98.8, "G-361": 100, "SK-MEL-2": 100, "RPMI-7951": 104}
{"drug": "C[C@@H](Oc1cc(-c2cnn(C3CCNCC3)c2)cnc1N)c1c(Cl)ccc(F)c1Cl at 1000 nM", "A375": 106, "G-361": 93.7, "SK-MEL-2": 91.0, "RPMI-7951": 78.4}
{"drug": "C[C@]1(O)C[C@@H](c2nc(-c3ccc4ccc(-c5ccccc5)nc4c3)c3c(N)nccn32)C1 at 2000 nM", "A375": 101, "G-361": 79.4, "SK-MEL-2": 77.0, "RPMI-7951": 86.4}
{"drug": "COc1cc(N2CCC(N3CCN(C)CC3)CC2)ccc1Nc1ncc(Cl)c(Nc2ccccc2S(=O)(=O)C(C)C)n1 at 400 nM", "A375": 101, "G-361": 77.4, "SK-MEL-2": 62.9, "RPMI-7951": 75.9}
{"drug": "COC(=O)c1sccc1S(=O)(=O)Nc1ccc(Nc2ccccc2)cc1OC at 5000 nM", "A375": 86.8, "G-361": 75.6, "SK-MEL-2": 83.3, "RPMI-7951": 75.3}
{"drug": "O=c1cc(-c2cccc3c2Sc2ccccc2S3)oc(N2CCOCC2)c1 at 5000 nM", "A375": 102, "G-361": 70.0, "SK-MEL-2": 81.3, "RPMI-7951": 79.0}
{"drug": "Oc1nc(-c2ccc(C(F)(F)F)cc2)nc2c1CSCC2 at 10000 nM", "A375": 103, "G-361": 93.3, "SK-MEL-2": 111, "RPMI-7951": 76.2}
{"drug": "CCN(CC)CCCCNc1ncc2cc(-c3cc(OC)cc(OC)c3)c(NC(=O)NC(C)(C)C)nc2n1 at 500 nM", "A375": 118, "G-361": 84.4, "SK-MEL-2": 88.8, "RPMI-7951": 91.1}
{"drug": "C[As](C)SC[C@H](NC(=O)CC[C@H](N)C(=O)O)C(=O)NCC(=O)O at 2000 nM", "A375": 87.4, "G-361": 86.8, "SK-MEL-2": 88.8, "RPMI-7951": 103}

3 of the entries, repeated:

Drug,A375,G-361,SK-MEL-2,RPMI-7951
COc1ccc2c(c1)CCC1C2CCC2(C)C(NCCCCCCN3C(=O)C=CC3=O)CCC12 (centres unmarked) at 2000 nM,79.2,74.2,101,38.4
NC1(c2ccc(-c3nc4ccn5c(=O)[nH]nc5c4cc3-c3ccccc3)cc2)CCC1 at 2000 nM,109,79.9,61.1,68.7
CC1(C)NC(=O)N(c2ccc([N+](=O)[O-])c(C(F)(F)F)c2)C1=O at 5000 nM,132,146,99.5,148

Data from the primary screen of doi:10.1371/journal.pone.0140310, rounded.